Assay results as given in PMC10626543.
Results are given in words; binding and its absence hold for the method and conditions named. Binding seen in cells or lysates may run through a third protein. Here binding means that the protein was enriched with, or labelled near, the bait; the list need not be complete.

Sequences of proteins named here, by UniProt entry; tags and fusion partners are left off. Residues count along the entry.
UniProt P48678, residues 1-647: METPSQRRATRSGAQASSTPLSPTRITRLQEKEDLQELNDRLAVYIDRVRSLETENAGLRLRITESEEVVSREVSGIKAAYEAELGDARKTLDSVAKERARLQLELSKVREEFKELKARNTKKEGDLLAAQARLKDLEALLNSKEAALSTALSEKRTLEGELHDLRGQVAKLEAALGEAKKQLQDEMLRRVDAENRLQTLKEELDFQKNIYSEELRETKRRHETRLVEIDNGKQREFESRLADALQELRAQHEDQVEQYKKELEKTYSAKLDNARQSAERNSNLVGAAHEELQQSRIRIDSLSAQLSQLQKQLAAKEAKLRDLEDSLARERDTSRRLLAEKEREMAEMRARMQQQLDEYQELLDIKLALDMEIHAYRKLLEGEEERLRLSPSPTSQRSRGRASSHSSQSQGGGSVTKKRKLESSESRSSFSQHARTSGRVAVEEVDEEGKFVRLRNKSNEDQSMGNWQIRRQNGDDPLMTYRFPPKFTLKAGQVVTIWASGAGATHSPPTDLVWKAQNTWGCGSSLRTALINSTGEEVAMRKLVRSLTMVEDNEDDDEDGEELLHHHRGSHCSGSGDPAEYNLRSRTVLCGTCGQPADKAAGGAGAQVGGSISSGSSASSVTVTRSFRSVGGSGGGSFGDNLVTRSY
UniProt Q8C156: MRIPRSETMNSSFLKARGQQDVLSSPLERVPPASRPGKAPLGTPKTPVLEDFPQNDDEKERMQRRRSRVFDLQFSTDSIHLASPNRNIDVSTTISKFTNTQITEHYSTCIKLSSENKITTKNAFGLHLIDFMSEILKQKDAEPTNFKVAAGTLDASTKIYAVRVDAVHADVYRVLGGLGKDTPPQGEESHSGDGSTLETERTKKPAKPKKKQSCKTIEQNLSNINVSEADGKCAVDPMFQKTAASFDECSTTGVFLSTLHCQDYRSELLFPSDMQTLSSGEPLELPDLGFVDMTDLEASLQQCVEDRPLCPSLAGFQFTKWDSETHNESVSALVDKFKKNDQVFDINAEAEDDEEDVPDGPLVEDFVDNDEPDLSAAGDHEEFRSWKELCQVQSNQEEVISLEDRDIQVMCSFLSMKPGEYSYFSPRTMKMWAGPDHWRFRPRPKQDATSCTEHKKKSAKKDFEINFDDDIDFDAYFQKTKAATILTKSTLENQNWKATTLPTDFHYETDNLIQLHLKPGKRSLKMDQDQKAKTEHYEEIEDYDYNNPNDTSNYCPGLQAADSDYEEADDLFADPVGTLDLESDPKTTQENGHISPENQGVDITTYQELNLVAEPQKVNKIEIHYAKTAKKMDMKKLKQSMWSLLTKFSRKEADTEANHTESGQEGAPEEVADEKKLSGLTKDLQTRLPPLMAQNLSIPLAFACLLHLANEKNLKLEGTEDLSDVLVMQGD
UniProt P11798: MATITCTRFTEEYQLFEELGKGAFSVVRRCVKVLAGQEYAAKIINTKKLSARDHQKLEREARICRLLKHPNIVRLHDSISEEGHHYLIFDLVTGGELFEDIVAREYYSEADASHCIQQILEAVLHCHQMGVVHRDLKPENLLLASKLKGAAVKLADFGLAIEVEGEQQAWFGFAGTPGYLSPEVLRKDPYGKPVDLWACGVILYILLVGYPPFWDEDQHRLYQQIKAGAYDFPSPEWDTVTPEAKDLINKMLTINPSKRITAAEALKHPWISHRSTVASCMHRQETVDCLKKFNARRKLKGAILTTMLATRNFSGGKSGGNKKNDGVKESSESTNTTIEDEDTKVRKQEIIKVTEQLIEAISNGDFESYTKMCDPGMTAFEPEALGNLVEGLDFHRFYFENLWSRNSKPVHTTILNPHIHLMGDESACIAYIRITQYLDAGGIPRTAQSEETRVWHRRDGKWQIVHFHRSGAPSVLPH
UniProt O08539: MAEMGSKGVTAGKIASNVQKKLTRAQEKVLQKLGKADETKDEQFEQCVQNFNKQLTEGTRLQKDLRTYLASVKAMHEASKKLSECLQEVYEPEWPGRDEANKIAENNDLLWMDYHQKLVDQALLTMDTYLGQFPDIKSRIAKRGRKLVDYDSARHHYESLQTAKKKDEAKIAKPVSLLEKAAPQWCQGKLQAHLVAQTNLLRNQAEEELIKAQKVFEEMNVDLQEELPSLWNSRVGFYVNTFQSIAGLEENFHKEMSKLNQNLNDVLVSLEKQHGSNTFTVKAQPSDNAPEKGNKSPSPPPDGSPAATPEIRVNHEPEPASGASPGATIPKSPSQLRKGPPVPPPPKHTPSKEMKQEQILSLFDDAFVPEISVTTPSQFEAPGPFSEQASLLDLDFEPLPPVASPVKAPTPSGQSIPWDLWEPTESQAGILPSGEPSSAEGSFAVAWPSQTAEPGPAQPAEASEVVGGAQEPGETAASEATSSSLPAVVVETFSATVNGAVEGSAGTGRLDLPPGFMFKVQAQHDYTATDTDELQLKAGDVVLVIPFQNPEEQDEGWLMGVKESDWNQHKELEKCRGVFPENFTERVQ
UniProt Q8BQ46: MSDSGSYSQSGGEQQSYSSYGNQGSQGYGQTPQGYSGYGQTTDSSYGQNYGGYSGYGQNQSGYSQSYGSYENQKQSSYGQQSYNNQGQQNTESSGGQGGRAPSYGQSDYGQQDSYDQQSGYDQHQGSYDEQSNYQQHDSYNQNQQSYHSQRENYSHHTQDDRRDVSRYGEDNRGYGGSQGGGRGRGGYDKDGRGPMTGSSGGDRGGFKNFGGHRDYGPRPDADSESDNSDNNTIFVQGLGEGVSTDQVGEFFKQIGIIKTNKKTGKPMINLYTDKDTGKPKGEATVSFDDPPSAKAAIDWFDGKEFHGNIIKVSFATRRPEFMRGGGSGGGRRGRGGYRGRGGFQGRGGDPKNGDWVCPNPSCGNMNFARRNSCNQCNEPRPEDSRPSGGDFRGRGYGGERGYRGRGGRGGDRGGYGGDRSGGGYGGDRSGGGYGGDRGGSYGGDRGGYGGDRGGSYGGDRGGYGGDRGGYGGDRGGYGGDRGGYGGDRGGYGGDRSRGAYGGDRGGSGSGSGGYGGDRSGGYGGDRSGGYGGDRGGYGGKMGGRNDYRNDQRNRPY
UniProt P26883: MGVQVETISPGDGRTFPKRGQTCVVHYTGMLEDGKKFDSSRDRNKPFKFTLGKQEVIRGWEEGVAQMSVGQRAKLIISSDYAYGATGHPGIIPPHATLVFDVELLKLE
UniProt P50462: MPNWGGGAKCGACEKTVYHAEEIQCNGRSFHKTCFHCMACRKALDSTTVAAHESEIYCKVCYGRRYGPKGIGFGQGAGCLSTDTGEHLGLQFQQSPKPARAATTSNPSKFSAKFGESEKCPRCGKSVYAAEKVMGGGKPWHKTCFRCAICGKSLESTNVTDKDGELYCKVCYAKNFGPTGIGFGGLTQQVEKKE
UniProt P63330: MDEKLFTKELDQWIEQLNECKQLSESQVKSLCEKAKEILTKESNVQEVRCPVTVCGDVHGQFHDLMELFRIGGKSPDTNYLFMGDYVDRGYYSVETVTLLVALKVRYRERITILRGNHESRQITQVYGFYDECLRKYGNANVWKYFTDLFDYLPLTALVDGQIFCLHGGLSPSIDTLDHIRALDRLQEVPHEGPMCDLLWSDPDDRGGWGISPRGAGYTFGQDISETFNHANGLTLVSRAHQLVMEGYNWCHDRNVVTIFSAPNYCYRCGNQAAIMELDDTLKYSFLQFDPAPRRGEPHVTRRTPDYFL
UniProt P63087: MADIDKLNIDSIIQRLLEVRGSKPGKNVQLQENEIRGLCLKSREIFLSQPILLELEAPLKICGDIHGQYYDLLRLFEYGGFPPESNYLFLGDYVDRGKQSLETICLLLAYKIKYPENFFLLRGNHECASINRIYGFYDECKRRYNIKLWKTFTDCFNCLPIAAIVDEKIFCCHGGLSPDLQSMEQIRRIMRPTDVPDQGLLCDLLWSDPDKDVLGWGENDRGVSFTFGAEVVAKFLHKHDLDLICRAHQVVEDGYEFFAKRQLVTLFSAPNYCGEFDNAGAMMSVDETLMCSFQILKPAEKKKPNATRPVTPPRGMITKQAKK
UniProt Q8VEK3: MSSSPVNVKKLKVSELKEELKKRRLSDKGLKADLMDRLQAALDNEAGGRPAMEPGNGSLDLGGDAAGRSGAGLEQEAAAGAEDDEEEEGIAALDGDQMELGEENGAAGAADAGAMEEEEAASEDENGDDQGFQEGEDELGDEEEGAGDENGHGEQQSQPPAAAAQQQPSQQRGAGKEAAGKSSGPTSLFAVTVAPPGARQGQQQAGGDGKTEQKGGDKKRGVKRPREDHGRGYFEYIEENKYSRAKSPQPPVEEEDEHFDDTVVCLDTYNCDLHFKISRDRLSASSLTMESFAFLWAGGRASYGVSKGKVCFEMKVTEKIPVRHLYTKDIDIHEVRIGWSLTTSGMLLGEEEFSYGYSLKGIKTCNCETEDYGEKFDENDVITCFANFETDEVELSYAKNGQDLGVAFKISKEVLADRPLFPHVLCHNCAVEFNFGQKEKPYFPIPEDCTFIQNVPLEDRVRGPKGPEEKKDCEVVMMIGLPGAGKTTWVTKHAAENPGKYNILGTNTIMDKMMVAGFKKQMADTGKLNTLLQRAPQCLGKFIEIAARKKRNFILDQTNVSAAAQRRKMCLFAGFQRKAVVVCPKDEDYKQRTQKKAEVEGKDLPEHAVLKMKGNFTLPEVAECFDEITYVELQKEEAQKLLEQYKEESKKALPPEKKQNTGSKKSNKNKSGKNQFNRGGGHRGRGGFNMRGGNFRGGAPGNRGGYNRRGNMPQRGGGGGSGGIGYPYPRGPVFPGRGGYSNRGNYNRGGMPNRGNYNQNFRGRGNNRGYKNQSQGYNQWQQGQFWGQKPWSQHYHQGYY
UniProt Q921U8: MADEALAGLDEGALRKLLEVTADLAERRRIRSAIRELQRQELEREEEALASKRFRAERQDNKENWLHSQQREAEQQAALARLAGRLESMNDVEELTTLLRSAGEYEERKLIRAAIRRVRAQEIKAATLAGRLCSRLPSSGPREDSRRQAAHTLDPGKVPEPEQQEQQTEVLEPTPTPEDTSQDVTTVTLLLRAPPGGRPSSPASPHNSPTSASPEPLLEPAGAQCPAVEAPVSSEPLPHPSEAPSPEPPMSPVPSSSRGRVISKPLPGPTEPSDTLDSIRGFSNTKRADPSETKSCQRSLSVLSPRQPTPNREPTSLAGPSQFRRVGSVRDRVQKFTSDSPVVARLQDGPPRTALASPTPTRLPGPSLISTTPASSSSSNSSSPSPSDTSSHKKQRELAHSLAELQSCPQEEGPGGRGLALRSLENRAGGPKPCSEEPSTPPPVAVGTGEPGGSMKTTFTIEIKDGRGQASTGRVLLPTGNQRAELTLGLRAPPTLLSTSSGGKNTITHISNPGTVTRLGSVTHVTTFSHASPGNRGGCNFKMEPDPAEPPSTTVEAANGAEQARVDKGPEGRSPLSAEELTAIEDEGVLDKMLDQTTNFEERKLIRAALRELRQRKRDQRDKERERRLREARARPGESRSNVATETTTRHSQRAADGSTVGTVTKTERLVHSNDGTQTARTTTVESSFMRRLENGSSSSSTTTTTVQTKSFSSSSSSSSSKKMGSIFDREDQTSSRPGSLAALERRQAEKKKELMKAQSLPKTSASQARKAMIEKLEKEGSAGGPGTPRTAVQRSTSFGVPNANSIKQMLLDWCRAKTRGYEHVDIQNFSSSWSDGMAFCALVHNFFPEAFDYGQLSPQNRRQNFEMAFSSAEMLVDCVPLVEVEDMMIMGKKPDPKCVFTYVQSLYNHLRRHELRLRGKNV
UniProt Q9JLV1: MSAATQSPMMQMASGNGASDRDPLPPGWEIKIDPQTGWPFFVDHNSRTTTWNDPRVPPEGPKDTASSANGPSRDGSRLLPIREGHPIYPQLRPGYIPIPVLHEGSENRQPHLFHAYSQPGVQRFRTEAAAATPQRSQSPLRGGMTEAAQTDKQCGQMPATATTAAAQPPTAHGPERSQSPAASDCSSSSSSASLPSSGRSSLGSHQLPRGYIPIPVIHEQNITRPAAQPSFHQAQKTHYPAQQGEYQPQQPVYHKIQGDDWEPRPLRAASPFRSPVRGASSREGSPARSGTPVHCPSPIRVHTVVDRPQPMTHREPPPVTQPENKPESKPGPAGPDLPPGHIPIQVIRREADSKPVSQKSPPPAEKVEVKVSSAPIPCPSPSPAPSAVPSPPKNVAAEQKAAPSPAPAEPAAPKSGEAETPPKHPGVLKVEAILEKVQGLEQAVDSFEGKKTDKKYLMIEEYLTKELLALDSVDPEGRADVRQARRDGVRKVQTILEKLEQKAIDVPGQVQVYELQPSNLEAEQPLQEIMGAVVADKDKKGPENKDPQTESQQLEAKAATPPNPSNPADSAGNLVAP
UniProt P60335: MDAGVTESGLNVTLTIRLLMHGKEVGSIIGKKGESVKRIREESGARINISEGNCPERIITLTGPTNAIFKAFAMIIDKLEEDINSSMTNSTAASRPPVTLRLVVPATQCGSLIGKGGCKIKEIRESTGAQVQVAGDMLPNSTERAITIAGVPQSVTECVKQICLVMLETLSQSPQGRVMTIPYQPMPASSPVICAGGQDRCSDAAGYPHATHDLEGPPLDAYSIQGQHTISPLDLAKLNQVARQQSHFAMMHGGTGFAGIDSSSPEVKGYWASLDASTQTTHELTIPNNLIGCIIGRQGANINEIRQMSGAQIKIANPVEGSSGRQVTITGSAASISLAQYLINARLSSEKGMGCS

Columns and labels:
[1] = target: native lamin A/C (mouse (endogenous in heart, skeletal muscle and brain)) (UniProt P48678); test: affinity purification with mass spectrometry; native lamin A/C immunoprecipitated with mAb 4C11 and Protein G Sepharose from sonicated skeletal muscle lysates of old IL10-KO and control C57Bl/6 female mice (five each); 50 mM Tris pH 7.4, 300 mM NaCl, 0.3% Triton X-100, 4°C; TMT 10-plex
[2] = target: native lamin A/C (mouse (endogenous in heart, skeletal muscle and brain)) (UniProt P48678); test: affinity purification with mass spectrometry; native lamin A/C immunoprecipitated with mAb 4C11 and Protein G Sepharose from sonicated heart lysates of old IL10-KO and control C57Bl/6 female mice (five each); 50 mM Tris pH 7.4, 300 mM NaCl, 0.3% Triton X-100, 4°C; TMT 10-plex

Substance	binding [1]	binding [2]
Condensin complex subunit 2 (from UniProt Q8C156 1-731)	binds	–
Fxr1 (Fragile X syndrome-related protein 1) (from UniProt Q61584 1-677)	binds	–
ETS translocation variant 3-like protein (from UniProt A0A5F8MPE2 1-356)	–	binds
Camk2a (from UniProt P11798 1-478)	binds	–
Moesin (from UniProt P26041 1-577)	–	binds
NAMPT (from UniProt Q99KQ4 1-491)	binds	binds
protein phosphatase 2 (Ppp2cb) (from UniProt P62715 1-309)	binds	–
Leucine-rich repeat flightless-interacting protein 2 (from UniProt Q91WK0 1-415)	–	binds
Heterogeneous nuclear ribonucleoproteins A2/B1 (from UniProt O88569 1-353)	–	binds
Prkaa2 (from UniProt Q8BRK8 1-552)	binds	–
Ankyrin repeat domain-containing protein 2 (from UniProt Q9WV06 1-328)	binds	–
Acidic leu-rich nuclear phosphop’n 32 family member A (from UniProt O35381 1-247)	binds	–
PDZ and LIM domain protein 7 (from UniProt Q3TJD7 1-457)	binds	–
Myc box-dependent-interacting protein 1 (from UniProt O08539 1-588)	binds	–
14-3-3 epsilon (Ywhae) (from UniProt P62259 1-255)	binds	–
Ras-related GTP-binding protein D (from UniProt Q7TT45 1-449)	binds	–
Transforming acidic coiled-coil-containing protein 2 (from UniProt Q9JJG0 1-1149)	binds	–
Akt2 (from UniProt Q60823 1-481)	binds	–
Heterogeneous nuclear ribonucleoproteins C (C1/C2) (from UniProt Q9Z204 1-313)	–	binds
Doublesex- and mab-3-related transcription factor 2 (from UniProt Q8BG36 1-561)	binds	–
Smc3 (structural maintenance of chromosomes protein 3) (from UniProt Q9CW03 1-1217)	binds	–
Prkag1 (from UniProt O54950 1-330)	binds	–
Matrin 3 (from UniProt Q8K310 1-846)	binds	–

Substance	binding [1]	binding [2]
Numa1 (from UniProt E9Q7G0 1-2094)	binds	–
Alpha-protein kinase 3 (from UniProt Q924C5 1-1680)	binds	–
DnaJ homolog subfamily B member 4 (from UniProt Q9D832 1-337)	binds	–
Signal transducer and activator of transcription 5B (from UniProt P42232 1-786)	binds	–
TATA-binding protein-associated factor 2N (from UniProt Q8BQ46 1-557)	–	binds
Prkar2a (from UniProt P12367 1-401)	binds	–
Peptidyl-prolyl cis-trans isomerase FKBP1A (from UniProt P26883 1-108)	binds	–
Cysteine and glycine-rich protein 3 (aka MLP), mouse (from UniProt P50462 1-194)	binds	binds
Striated muscle-specific serine/threonine-protein kinase (from UniProt Q62407 1-3262)	–	binds
Ser/Thr-protein phosphatase 2A catalytic subunit alpha (from UniProt P63330 1-309)	–	binds
Hepatoma-derived growth factor (from UniProt P51859 1-237)	binds	–
Ryanodine receptor 1 (from UniProt E9PZQ0 1-5035)	binds	–
Ppp1cc (from UniProt P63087 1-323)	binds	–
E3 SUMO-protein ligase PIAS2 (from UniProt Q8C5D8 1-621)	–	binds
Protein FAM114A2 (from UniProt Q8VE88 1-497)	binds	–
Heterogeneous nuclear ribonucleoprotein U (from UniProt Q8VEK3 1-800)	binds	–
Smoothelin (from UniProt Q921U8 1-923)	binds	–
Camk2g (from UniProt Q923T9 1-529)	binds	–
PR domain zinc finger protein 2 (from UniProt A2A7B5 1-1709)	binds	binds
TAR DNA-binding protein 43 (from UniProt Q921F2 1-414)	binds	–
BAG family molecular chaperone regulator 3 (from UniProt Q9JLV1 1-577)	–	binds
Pcbp1 (poly(rC)-binding protein, aka HnrnpE1) (from UniProt P60335 1-356)	binds	–
